Consider 1 substance from US20040077879A1 (priority 2002, published 2004).

Some peptides are written in HELM: one residue between dots, names in brackets for other building blocks, links after the first $.

This data set can be described thus: general procedure: peptide synthesis; polystyrene resin (Novabiochem); HMPA, HMBA, RINK, silylalkyl or 4-sulfamylbenzoyl linkers. Conditions: whole synthesis.

As for “PEPTIDE1{Y.[pro4(2S4S)].[pro4(2S4S)].[pro4(2S4S)].[am]}$PEPTIDE1,PEPTIDE1,1:R1-2:R3|PEPTIDE1,PEPTIDE1,2:R4-3:R3|PEPTIDE1,PEPTIDE1,3:R4-4:R3$$$V2.0”, the crude mass came to 5 mg. In addition, the crude yield entry (based on resin loading, scale of the general procedure 20 umol) is on record as “˜15% yield”.
